# Some of the results follow. The data scatter; read single values as rough.
# Amino acid sequences for entries named in this document (tags omitted). A change or cut given only in a name is not applied to a line headed by its entry. Residues count along the entry.
# UniProt Q1L5Z9, 246-266: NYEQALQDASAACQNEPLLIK
# UniProt P18858, whole entry, looked up: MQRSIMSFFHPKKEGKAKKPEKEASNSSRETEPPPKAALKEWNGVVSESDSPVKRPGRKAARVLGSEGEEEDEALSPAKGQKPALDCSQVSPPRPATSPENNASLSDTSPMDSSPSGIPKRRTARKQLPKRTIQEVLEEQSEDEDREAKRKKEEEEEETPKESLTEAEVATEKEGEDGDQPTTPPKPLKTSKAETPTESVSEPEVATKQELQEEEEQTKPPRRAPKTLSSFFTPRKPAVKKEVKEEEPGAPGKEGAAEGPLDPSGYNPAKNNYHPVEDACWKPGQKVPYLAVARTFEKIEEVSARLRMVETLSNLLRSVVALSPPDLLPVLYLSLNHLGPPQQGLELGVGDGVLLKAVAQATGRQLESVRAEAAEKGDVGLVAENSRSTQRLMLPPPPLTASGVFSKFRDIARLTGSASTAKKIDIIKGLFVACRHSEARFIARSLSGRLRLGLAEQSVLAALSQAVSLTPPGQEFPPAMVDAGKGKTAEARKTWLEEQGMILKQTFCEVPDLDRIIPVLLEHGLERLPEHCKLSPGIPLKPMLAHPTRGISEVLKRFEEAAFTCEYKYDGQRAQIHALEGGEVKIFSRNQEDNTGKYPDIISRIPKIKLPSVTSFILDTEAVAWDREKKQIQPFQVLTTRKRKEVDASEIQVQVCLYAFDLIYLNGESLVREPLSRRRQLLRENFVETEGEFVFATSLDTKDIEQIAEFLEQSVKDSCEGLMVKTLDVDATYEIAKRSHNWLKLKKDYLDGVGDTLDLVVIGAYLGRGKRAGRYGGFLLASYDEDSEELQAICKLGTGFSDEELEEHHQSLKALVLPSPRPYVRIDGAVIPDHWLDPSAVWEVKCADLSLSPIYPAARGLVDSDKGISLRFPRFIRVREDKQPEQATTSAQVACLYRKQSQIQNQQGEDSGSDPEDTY
# UniProt O14686: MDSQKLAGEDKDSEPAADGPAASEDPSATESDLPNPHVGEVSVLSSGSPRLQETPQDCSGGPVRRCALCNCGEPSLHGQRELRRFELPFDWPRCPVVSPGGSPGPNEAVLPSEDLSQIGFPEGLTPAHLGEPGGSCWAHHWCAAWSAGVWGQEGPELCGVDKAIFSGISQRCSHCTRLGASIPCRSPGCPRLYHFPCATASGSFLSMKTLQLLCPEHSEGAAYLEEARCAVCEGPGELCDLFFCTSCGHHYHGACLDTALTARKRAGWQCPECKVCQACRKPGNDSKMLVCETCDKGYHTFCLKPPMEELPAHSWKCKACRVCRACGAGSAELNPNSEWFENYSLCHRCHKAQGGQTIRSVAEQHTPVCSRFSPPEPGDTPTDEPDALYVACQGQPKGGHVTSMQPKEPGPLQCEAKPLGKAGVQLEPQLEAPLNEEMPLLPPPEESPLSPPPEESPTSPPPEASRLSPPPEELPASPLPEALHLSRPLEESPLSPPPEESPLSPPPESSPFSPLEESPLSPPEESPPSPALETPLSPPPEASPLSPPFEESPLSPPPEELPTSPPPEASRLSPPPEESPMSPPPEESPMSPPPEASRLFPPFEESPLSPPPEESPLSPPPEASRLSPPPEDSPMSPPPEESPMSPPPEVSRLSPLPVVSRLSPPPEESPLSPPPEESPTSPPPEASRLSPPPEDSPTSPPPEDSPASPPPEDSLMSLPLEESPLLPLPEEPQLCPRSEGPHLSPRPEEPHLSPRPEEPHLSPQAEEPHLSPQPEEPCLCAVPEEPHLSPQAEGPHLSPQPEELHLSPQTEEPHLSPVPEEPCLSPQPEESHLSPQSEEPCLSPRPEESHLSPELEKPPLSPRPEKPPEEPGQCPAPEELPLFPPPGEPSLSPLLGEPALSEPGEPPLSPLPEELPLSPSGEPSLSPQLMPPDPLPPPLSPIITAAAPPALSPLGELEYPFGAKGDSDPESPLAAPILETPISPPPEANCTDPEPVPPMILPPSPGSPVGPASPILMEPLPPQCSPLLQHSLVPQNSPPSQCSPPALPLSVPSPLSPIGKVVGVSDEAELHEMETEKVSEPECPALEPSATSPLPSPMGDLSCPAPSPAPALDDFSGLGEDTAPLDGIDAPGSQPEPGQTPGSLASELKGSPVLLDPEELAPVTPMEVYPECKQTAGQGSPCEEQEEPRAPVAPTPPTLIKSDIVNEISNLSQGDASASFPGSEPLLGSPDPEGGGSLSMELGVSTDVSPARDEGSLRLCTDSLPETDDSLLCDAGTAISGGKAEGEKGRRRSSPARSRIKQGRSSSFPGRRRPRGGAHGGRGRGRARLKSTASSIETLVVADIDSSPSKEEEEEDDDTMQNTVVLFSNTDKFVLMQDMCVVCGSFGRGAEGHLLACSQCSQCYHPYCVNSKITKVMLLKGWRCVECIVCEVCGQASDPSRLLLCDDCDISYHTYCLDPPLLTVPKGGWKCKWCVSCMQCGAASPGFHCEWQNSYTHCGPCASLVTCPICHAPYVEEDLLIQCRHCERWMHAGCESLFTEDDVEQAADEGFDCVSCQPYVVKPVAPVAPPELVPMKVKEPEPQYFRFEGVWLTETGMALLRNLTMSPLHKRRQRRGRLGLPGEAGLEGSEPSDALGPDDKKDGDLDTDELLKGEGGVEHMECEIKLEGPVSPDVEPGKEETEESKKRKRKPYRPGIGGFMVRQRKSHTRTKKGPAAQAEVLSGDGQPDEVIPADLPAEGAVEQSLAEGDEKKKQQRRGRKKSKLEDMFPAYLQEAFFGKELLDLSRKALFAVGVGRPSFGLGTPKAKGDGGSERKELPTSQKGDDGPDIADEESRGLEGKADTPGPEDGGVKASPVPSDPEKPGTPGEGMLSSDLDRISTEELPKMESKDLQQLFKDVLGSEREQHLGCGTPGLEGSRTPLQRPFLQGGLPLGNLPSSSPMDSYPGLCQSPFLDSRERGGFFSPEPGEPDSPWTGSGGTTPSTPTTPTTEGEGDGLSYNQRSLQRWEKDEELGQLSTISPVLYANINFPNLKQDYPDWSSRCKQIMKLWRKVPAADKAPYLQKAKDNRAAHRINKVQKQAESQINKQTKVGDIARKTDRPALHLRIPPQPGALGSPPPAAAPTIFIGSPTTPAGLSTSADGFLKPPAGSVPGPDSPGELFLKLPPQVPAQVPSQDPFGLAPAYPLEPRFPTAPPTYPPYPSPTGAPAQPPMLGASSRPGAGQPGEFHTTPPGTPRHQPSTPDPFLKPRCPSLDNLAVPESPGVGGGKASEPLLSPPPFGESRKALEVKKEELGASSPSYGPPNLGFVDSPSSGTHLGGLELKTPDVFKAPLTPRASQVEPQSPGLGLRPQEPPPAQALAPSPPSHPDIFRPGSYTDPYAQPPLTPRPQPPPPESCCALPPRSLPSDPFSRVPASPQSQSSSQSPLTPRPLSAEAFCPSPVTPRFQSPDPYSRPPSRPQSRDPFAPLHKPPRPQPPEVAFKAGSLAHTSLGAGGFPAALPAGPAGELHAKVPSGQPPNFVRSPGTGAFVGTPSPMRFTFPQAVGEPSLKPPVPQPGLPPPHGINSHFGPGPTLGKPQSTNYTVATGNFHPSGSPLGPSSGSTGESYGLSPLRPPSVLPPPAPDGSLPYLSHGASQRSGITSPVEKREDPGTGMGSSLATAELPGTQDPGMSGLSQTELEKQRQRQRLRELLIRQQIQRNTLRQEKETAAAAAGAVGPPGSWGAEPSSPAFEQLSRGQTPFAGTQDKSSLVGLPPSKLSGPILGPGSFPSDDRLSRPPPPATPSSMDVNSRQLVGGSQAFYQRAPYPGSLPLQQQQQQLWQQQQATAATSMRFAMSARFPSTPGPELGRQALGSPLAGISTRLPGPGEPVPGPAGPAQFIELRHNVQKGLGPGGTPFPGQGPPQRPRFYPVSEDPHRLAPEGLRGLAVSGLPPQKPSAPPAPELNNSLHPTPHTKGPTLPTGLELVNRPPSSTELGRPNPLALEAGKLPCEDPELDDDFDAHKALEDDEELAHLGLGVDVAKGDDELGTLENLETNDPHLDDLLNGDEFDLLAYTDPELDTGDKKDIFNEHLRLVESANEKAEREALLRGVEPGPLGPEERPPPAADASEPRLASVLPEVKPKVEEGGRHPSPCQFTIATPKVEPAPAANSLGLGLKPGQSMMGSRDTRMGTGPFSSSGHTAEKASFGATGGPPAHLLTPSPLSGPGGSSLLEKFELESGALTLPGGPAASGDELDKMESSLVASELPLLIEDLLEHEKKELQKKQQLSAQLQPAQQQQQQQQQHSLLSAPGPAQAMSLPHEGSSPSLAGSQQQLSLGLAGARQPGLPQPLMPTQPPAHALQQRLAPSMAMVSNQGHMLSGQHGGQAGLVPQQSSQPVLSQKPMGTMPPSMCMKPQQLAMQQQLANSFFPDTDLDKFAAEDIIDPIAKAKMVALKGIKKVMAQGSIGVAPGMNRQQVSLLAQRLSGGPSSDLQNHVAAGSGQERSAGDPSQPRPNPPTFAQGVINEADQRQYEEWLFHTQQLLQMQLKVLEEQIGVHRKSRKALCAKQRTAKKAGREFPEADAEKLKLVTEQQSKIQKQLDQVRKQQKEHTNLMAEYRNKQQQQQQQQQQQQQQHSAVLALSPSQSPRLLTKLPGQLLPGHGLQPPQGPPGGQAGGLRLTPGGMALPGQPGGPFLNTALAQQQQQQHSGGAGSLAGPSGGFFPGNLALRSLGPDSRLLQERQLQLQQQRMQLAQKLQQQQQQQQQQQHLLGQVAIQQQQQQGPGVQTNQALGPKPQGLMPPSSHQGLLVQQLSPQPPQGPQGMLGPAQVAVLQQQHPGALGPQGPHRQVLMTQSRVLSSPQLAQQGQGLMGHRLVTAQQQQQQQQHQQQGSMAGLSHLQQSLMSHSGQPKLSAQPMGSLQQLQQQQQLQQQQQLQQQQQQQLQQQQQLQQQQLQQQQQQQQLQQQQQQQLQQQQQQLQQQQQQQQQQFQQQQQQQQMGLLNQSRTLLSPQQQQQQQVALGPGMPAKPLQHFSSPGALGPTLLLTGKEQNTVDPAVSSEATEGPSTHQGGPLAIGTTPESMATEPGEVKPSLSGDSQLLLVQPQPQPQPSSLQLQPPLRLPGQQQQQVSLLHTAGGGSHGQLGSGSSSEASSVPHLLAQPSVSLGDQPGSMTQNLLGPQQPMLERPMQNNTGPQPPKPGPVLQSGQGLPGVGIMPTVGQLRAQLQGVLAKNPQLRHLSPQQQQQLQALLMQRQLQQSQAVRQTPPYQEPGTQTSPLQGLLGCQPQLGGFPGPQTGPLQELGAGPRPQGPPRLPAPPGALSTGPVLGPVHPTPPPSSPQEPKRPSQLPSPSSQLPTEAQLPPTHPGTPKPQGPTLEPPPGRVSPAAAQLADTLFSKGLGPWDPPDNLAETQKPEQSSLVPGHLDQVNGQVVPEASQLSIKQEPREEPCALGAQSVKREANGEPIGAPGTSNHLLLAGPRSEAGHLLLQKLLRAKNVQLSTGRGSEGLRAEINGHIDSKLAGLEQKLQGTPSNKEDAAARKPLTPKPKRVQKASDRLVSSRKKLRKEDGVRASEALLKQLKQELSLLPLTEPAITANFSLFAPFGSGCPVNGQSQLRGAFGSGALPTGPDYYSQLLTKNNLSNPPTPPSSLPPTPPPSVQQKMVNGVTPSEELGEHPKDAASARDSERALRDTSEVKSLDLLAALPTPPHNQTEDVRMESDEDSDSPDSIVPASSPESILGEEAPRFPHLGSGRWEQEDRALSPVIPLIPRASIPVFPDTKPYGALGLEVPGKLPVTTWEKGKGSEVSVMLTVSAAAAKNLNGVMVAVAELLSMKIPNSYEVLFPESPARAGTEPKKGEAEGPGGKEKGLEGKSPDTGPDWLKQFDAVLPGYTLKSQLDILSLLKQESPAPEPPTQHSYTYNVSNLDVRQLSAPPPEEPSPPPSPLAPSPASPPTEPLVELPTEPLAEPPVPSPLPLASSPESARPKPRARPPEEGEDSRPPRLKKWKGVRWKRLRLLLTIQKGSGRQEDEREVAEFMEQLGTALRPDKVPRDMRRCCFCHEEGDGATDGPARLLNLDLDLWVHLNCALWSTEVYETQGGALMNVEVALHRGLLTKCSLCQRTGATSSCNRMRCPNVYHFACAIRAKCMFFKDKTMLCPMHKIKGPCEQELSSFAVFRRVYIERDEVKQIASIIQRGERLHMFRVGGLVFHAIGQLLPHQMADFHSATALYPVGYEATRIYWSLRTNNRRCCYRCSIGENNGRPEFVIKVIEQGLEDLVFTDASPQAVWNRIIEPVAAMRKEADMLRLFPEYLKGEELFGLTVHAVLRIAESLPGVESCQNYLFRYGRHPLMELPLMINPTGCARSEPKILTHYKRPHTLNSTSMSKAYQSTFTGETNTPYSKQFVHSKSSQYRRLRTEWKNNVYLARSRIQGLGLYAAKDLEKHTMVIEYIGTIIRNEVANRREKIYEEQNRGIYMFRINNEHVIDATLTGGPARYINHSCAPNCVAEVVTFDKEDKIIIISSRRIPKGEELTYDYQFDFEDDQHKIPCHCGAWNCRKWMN
# Compound: ClCC(=O)N[C@@H]1CCCc2ccccc12
# Experiment: log2 mean competition ratio of IA-DTB cysteine labelling (DMSO/compound) (log2 ratio); higher = stronger cysteine engagement by compound
# Settings: 50 µM; treatment time: 4 h; cell line lysate: HEK293T
# Protocol: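 IA-DTB competitive cysteine chemoproteomics in HEK293T RIPA lysate. Lysates were treated with compound 29 or 30 at 50 or 200 µM for 4 h, then IA-DTB (500 µM, 1 h), trypsin-digested, NeutrAvidin-enriched and analysed by diaPASEF. Competition ratio = intensity DMSO / intensity compound (n=4 treated, n=64 DMSO); binding: mean log2 CR ≥ 1 and p ≤ 0.05 plus QC filters. Target is the cysteine site.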
row,Target,log2 mean competition ratio
1,KMT2C C4643 (UniProt Q8NEZ4),-0.104
2,LIN28B C201 (UniProt Q6ZN17),0.157
3,LIMD1 C560 (UniProt Q9UGP4),0.00352
4,LMO7 C98 (UniProt Q8WWI1),0.39
5,LMNB2 C212 (UniProt Q03252),0.0691
6,LARP4B C654 (UniProt Q92615),0.039
7,KIF7 C409,0.08
8,LAS1L C690 (UniProt Q9Y4W2),-0.123
9,LARS1 C248,0.109
10,LONRF2 C258 (UniProt Q1L5Z9),-0.157
11,LCLAT1 C336 (UniProt Q6UWP7),0.531
12,LARS1 C554,0.06
13,LARS1 C573,0.316
14,KLRG2 C197,-0.213
15,LRBA C1228,-0.0445
16,LDAH C261 (UniProt Q9H6V9),-0.0836
17,LCP1 C42 (UniProt P13796),0.132
18,LIG1 C508 (UniProt P18858),-0.247
19,KNL1 C638 (UniProt Q8NG31),-0.259

row,Target,log2 mean competition ratio
1,LOC102724159 C158,0.188
2,LONP1 C909 (UniProt P36776),-0.0614
3,LEMD2 C355 (UniProt Q8NC56),0.283
4,KMT2D C58 (UniProt O14686),0.067
5,KNTC1 C390 (UniProt P50748),0.0551
6,LRPPRC C1043,0.313
7,LRCH2 C730,0.259
8,KNL1 C774 (UniProt Q8NG31),-0.0659
9,L3HYPDH C205 (UniProt Q96EM0),-0.0948
10,KYAT3 C337 (UniProt Q6YP21),0.231
11,LIG1 C846 (UniProt P18858),0.0296
12,KMT2D C5230 (UniProt O14686),-0.104
13,LRPPRC C927,-0.133
14,LAP3 C445 (UniProt P28838),-0.604
15,LIMK1 C208 (UniProt P53667),-0.249
16,LIMA1 C316 (UniProt Q9UHB6),-0.239
17,LARS2 C578 (UniProt Q15031),0.241
18,LLPH C64 (UniProt Q9BRT6),0.241

# Same assay, conditions: 200 µM; treatment time: 4 h; cell line lysate: HEK293T
row,Target,log2 mean competition ratio
1,KMT2C C4643 (UniProt Q8NEZ4),-0.182
2,LIN28B C201 (UniProt Q6ZN17),0.235
3,LIMD1 C560 (UniProt Q9UGP4),-0.197
4,LMO7 C98 (UniProt Q8WWI1),-0.0516
5,LMNB2 C212 (UniProt Q03252),0.195
6,LARP4B C654 (UniProt Q92615),0.105
7,KIF7 C409,0.638
8,LAS1L C690 (UniProt Q9Y4W2),0.241
9,LARS1 C248,-0.0823
10,LONRF2 C258 (UniProt Q1L5Z9),-0.0918
11,LCLAT1 C336 (UniProt Q6UWP7),0.103
12,LARS1 C554,0.362
13,LARS1 C573,0.482
14,KLRG2 C197,0.321
15,LRBA C1228,-0.0891
16,LDAH C261 (UniProt Q9H6V9),0.0944
17,LCP1 C42 (UniProt P13796),0.245
18,LIG1 C508 (UniProt P18858),-0.198
19,KNL1 C638 (UniProt Q8NG31),0.14

row,Target,log2 mean competition ratio
1,LOC102724159 C158,0.067
2,LONP1 C909 (UniProt P36776),-0.324
3,LEMD2 C355 (UniProt Q8NC56),-0.322
4,KMT2D C58 (UniProt O14686),0.109
5,KNTC1 C390 (UniProt P50748),0.184
6,LRPPRC C1043,-0.0255
7,LRCH2 C730,0.202
8,KNL1 C774 (UniProt Q8NG31),-0.0857
9,L3HYPDH C205 (UniProt Q96EM0),-0.121
10,KYAT3 C337 (UniProt Q6YP21),0.0283
11,LIG1 C846 (UniProt P18858),-0.122
12,KMT2D C5230 (UniProt O14686),0.0753
13,LRPPRC C927,0.0456
14,LAP3 C445 (UniProt P28838),0.145
15,LIMK1 C208 (UniProt P53667),-0.275
16,LIMA1 C316 (UniProt Q9UHB6),-0.395
17,LARS2 C578 (UniProt Q15031),-0.139
18,LLPH C64 (UniProt Q9BRT6),0.183
